Data source: PubChem BioAssay AID1508597 (Cure First, 2020)
The whole screen tested about 2,100 reagents; shown is a part drawn at random. 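Calls flag viability under 80% in either arm, not effects specific to rucaparib; the reference for percent is not stated.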 Not stated in the record: the 100% reference.

Assay: 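Genes whose silencing sensitises or protects ovarian cancer cells against rucaparib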 (primary screen)
Cell system: human ovarian carcinoma lines grown from tumours: OCI-P5x (papillary serous) and OCI-C5x (clear cell)
Reagents: siRNA pool against human genes, 1.25 pmol siRNA per well
Timing: 72 h or 96 h, depending on the cell culture
Conditions: rucaparib 20 µM (about IC30) or vehicle, present until read-out
Detection: 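ATP luminescence measured at 72 or 96 h according to the culture, then normalised and expressed as percent viability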
Scale: viability, normalised: higher = more viable cells remaining
Call rule: 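Active when normalised viability falls below 80 percent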
Calls: active = viability under 80%; inactive = viability 80% or more

{"target gene": "IP6K2 (inositol hexakisphosphate kinase 2)", "rucaparib or vehicle": "Rucaparib", "cell line": "OCI-C5x (clear cell)", "technical replicate": "1", "viability, normalised (%)": 47.9, "activity call": "active"}
{"target gene": "IP6K2 (inositol hexakisphosphate kinase 2)", "rucaparib or vehicle": "Rucaparib", "cell line": "OCI-C5x (clear cell)", "technical replicate": "2", "viability, normalised (%)": 49.7, "activity call": "active"}
{"target gene": "IP6K2 (inositol hexakisphosphate kinase 2)", "rucaparib or vehicle": "Rucaparib", "cell line": "OCI-C5x (clear cell)", "technical replicate": "3", "viability, normalised (%)": 62.2, "activity call": "active"}
{"target gene": "IP6K2 (inositol hexakisphosphate kinase 2)", "rucaparib or vehicle": "Rucaparib", "cell line": "OCI-P5x (serous)", "technical replicate": "1", "viability, normalised (%)": 90, "activity call": "inactive"}
{"target gene": "IP6K2 (inositol hexakisphosphate kinase 2)", "rucaparib or vehicle": "Rucaparib", "cell line": "OCI-P5x (serous)", "technical replicate": "2", "viability, normalised (%)": 92.2, "activity call": "inactive"}
{"target gene": "IP6K2 (inositol hexakisphosphate kinase 2)", "rucaparib or vehicle": "Rucaparib", "cell line": "OCI-P5x (serous)", "technical replicate": "3", "viability, normalised (%)": 80.2, "activity call": "inactive"}
{"target gene": "IP6K2 (inositol hexakisphosphate kinase 2)", "rucaparib or vehicle": "Vehicle", "cell line": "OCI-C5x (clear cell)", "technical replicate": "1", "viability, normalised (%)": 69.1, "activity call": "active"}
{"target gene": "IP6K2 (inositol hexakisphosphate kinase 2)", "rucaparib or vehicle": "Vehicle", "cell line": "OCI-C5x (clear cell)", "technical replicate": "2", "viability, normalised (%)": 61, "activity call": "active"}
{"target gene": "IP6K2 (inositol hexakisphosphate kinase 2)", "rucaparib or vehicle": "Vehicle", "cell line": "OCI-C5x (clear cell)", "technical replicate": "3", "viability, normalised (%)": 56.4, "activity call": "active"}
{"target gene": "IP6K2 (inositol hexakisphosphate kinase 2)", "rucaparib or vehicle": "Vehicle", "cell line": "OCI-P5x (serous)", "technical replicate": "1", "viability, normalised (%)": 71.2, "activity call": "active"}
{"target gene": "IP6K2 (inositol hexakisphosphate kinase 2)", "rucaparib or vehicle": "Vehicle", "cell line": "OCI-P5x (serous)", "technical replicate": "2", "viability, normalised (%)": 80.1, "activity call": "inactive"}
{"target gene": "IP6K2 (inositol hexakisphosphate kinase 2)", "rucaparib or vehicle": "Vehicle", "cell line": "OCI-P5x (serous)", "technical replicate": "3", "viability, normalised (%)": 72.3, "activity call": "active"}
